No constants are given. Whether binding was seen depends on the method and setting. Some entries that bind do so weakly or less than the wild type.
Tests used:
[1] = biological target: retinoblastoma binding protein 4 (RBBp4) (UniProt Q09028); test: fluorescence polarization competition
[2] = biological target: retinoblastoma binding protein 4 (RBBp4) (UniProt Q09028); test: isothermal titration calorimetry
[3] = biological target: retinoblastoma binding protein 4 (RBBp4) (UniProt Q09028); test: SPR sensorgram (FIG. 1B)

Chains of the proteins cited; added tags and fusions are not shown.
UniProt Q09028: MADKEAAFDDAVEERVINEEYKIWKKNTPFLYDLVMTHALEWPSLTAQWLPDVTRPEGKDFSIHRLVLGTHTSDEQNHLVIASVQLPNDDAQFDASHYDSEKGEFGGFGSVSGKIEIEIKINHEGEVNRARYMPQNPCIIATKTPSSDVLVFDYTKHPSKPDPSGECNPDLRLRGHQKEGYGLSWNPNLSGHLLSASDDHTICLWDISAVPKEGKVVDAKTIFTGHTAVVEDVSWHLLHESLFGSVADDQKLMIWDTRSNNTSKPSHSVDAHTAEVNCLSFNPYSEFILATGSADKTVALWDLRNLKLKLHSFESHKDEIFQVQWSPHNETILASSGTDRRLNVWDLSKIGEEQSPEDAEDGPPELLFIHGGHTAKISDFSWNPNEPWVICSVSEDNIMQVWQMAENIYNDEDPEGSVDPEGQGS

Binder	binding [1]	binding [2]	binding [3]
MSRRKQAKPQ (N-terminal acetyl (Ac-), C-terminal amide (-NH2)) [Peptide 3 (Ac-…-NH2)]	binds		
MSRRKQAKP (N-terminal acetyl (Ac-), C-terminal amide (-NH2)) [Peptide 4 (Ac-…-NH2)]	binds		
MSRRKQAKPQH (N-terminal acetyl (Ac-), C-terminal amide (-NH2)) [Peptide 2 (Ac-…-NH2)]	binds		
SRRKQAKPQHI (N-terminal acetyl (Ac-), C-terminal amide (-NH2)) [Peptide 5 (Ac-…-NH2)]	binds		
RRKQAAPQHI (N-terminal acetyl (Ac-), C-terminal amide (-NH2)) [Peptide 12 (Ac-…-NH2)]	binds		
RRKAAKPQHI (N-terminal acetyl (Ac-), C-terminal amide (-NH2)) [Peptide 11 (Ac-…-NH2)]	binds		

Results, then the binder that gave them:

binding [1]	binding [2]	binding [3]	Binder
binds			RRKLAKPQHI (N-terminal acetyl (Ac-), C-terminal amide (-NH2)) [Peptide 23 (Ac-…-NH2)]
binds			RRKQAKAQHI (N-terminal acetyl (Ac-), C-terminal amide (-NH2)) [Peptide 13 (Ac-…-NH2)]
	binds	binds	MSRRKQAKPQHI [WT SALL4 peptide (1-12 aa), …]
binds			RRKQAKFQHI (N-terminal acetyl (Ac-), C-terminal amide (-NH2)) [Peptide 34 (Ac-…-NH2)]
binds			RRKQAKPQHA (N-terminal acetyl (Ac-), C-terminal amide (-NH2)) [Peptide 16 (Ac-…-NH2)]
binds			RRKQAKPAHI (N-terminal acetyl (Ac-), C-terminal amide (-NH2)) [Peptide 14 (Ac-…-NH2)]
binds			RRKFAKPQHI (N-terminal acetyl (Ac-), C-terminal amide (-NH2)) [Peptide 24 (Ac-…-NH2)]
binds			RRKQAKPQAI (N-terminal acetyl (Ac-), C-terminal amide (-NH2)) [Peptide 15 (Ac-…-NH2)]

Source: patent US20190218253A1 (NATIONAL UNIVERSITY OF SINGAPORE, published 2019)
